The list shows a part of the results. Further columns of the screen follow, without active or inactive calls. The list favours compounds with an active or inconclusive main result. Words in brackets tell the shape of the fitted curve; partial curves, single points and poor fits give uncertain potencies.
Test: qHTS Assay for Lipid Storage Modulators in Drosophila S3 Cells;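 for cell number change: cells counted by Cell Tracker Red CMTPX staining in the red channel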
Conditions: BODIPY lipid droplet fluorescence, 18-24 h; for cell number change: measured here: cell count max response, cells fed with added oleic acid
Summary of the method: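 Drosophila S3 cells got compounds at several concentrations plus oleic acid (400 uM solution). Laser-scanning cytometry with 488 nm excitation read lipid droplets at 500-530 nm and cells at 575-640 nm. Percent activity was relative to 20 uM Triacsin C.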

[1] = measured here: cell number channel AC50, cells fed with added oleic acid
[2] = measured here: lipid fluorescence (Fed channel) AC50, cells fed with added oleic acid

Row | SMILES | cell number change [%] | AC50 [1] | AC50 [2]
1 | O=C(CN(CC1CCCO1)C(=O)CNS(=O)(=O)c1ccc(Cl)cc1)NCc1ccco1 (stereo not given) | 14.1 | 0.092 µM [rising, full curve, poor fit] | 0.116 µM [falling, single point]
2 | O=[N+]([O-])c1ccccc1S(=O)(=O)N1CCN(c2ccccn2)CC1 | -17.5 |  | 
3 | CC(C)C(=O)OC/C(O)=C(\C#N)c1nc2ccccc2[nH]1 | 10.5 | 0.00461 µM [falling, full curve, poor fit] | 
4 | Cc1ccc(S(=O)(=O)N(C)C)cc1NC(=S)NCCCn1ccnc1 | -8.25 |  | 
5 | CSc1ccc(S(=O)(=O)NCC(=O)OCC(=O)N2CCCC2=O)cc1[N+](=O)[O-] | 124 | 20.6 µM [rising, partial curve] | 0.103 µM [rising, full curve, poor fit]
6 | CC12CCC(=O)N1C(C(=O)NNC(=O)c1ccccc1Cl)CS2 (stereo not given) | 18.9 |  | 29.1 µM [falling, single point]
7 | Cc1ccccc1NS(=O)(=O)c1cc2c3c(c1)CC(=O)N3CCC2 | 29.7 |  | 0.13 µM [falling, single point]
8 | CCCN(CCC)C(=O)c1c(C)[nH]c(C(=O)OCC)c1C | 9.62 |  | 2.91 µM [rising, single point]
9 | COc1cc(C2SCC(=O)N2CCN2CCCCC2)ccc1O (stereo not given) | 9.55 |  | 0.116 µM [rising, full curve, poor fit]
10 | Cc1ccc(-c2cc(N)n[nH]2)cc1 | 24.7 | 1.64 µM [rising, full curve, poor fit] | 20.6 µM [rising, single point]
11 | CCC(CC)c1nnc(NC(=O)CCNC(=O)c2ccccc2Cl)s1 | 62 | 29.1 µM [rising, single point] | 16.4 µM [rising, single point]
12 | CCOC(=O)/C(C#N)=C/c1cn(CCC(=O)O)nc1-c1cccc(Br)c1 | -12.6 |  | 0.00461 µM [falling, full curve, poor fit]
13 | COc1ccc(C(=O)/C=C2/c3ccccc3CC(C)(C)N2C)cc1 | 3.22 |  | 29.1 µM [rising, single point]
14 | CCC(=O)NC(c1ccc(C)cc1)c1cc([N+](=O)[O-])c2cccnc2c1O (stereo not given) | 5.8 | 4.11 µM [falling, single point] | 3.26 µM [falling, single point]
15 | CC(C)[C@H](NC(=O)NCCC1=CCCCC1)C(=O)O | 15.3 |  | 4.61 µM [falling, partial curve]
16 | O=C(O)CC(C(=O)OCCOc1ccccc1)N1CCOCC1 (stereo not given) | -7.82 |  | 6.51 µM [falling, single point]

Quoted from the listing.
Value of O=C(O)CC(C(=O)OCCOc1ccccc1)N1CCOCC1 (stereo not given) under cell number change [%]: -7.82
Value of CCCN(CCC)C(=O)c1c(C)[nH]c(C(=O)OCC)c1C under cell number change [%]: 9.62
